Data as given in PubChem BioAssay AID504744 (Drosophila RNAi Screening Center, 2011).
The deposit covers about 23,000 reagents; shown is an unselected part of those with a known target gene and a result. Over the whole deposit, 98 (0.43%) were called active. 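Only hit calls are given; the phospho-dAkt signals, z-scores and hit direction were not deposited.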 The numbers tell different reagents against one gene apart. A plus sign joins genes that one reagent is predicted to hit.

- Screen: 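Identify dsRNAs that increase or decrease phospho-dAkt after insulin treatment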 (primary screen)
- Cell system: Drosophila Kc167 cells
- Reagent: long dsRNA against Drosophila genes, 250 ng dsRNA per well of a 384-well plate
- Duration: 3 days of knock-down, then overnight serum-free starvation before stimulation
- Conditions: bovine insulin at 387 nM for 10 minutes after 12 h without serum
- Measurement: 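In-cell antibody fluorescence for phospho-dAkt in each well over DNA-dye signal, with log2 residuals expressed as z-scores adjusted for cell count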
- Hit rule: 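Under insulin, a gene counts as a hit if the average z-score of two replicates lies above 2.5 or below -2.5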

no.	gene knocked down	dsRNA no.	call
1	CG17574 (GeneID 36415)	1	inactive
2	Or85f (GeneID 41119)	1	inactive
3	CG14439 (GeneID 31614)	1	inactive
4	CG17648 (GeneID 33357)	1	inactive
5	Nubp2 (GeneID 40282)	1	inactive
6	Vps20 (GeneID 37581)	1	inactive
7	CG2852 (GeneID 37591)	1	inactive
8	CG18081 (GeneID 39725)	1	inactive
9	CG34299 (GeneID 5740430)	1	inactive
10	blp (GeneID 41937)	1	inactive
11	sphinx2 (GeneID 38833)	1	inactive
12	CG8176 (GeneID 261329)	1	inactive
13	CG42784 (GeneID 326165)	1	inactive
14	CG42784 (GeneID 326165)	2	inactive
15	CG42784 (GeneID 326165)	3	inactive
16	CG13634 (GeneID 42951)	1	inactive
17	CG4424 (GeneID 42390)	1	inactive
18	HemK1 (GeneID 33902)	1	inactive
19	CG42673 (GeneID 39111)	1	inactive
20	CG42673 (GeneID 39111)	2	inactive
21	CG42673 (GeneID 39111)	3	inactive
22	CG42673 (GeneID 39111)	4	inactive
23	CG42673 (GeneID 39111)	5	inactive
24	CG42673 (GeneID 39111)	6	inactive
25	Dci (GeneID 38100)	1	inactive
26	Cubn2 (GeneID 39334)	1	inactive
27	Cubn2 (GeneID 39334)	2	inactive
28	Rpn13R (GeneID 31433)	1	inactive
29	CG15362 (GeneID 33371)	1	inactive
30	CG9747 (GeneID 43591)	1	inactive
31	CG31826 (GeneID 326164)	1	inactive
32	DAAM (GeneID 31075)	1	inactive
33	Gpo1 (GeneID 47611)	1	inactive
34	CG1688 (GeneID 36005)	1	inactive
35	CG8187 (GeneID 36720)	1	inactive
36	CG10514 (GeneID 43052)	1	inactive
37	Targ2 (GeneID 326246)	1	inactive
38	CG13231 (GeneID 36169)	1	inactive
39	CG1077 (GeneID 40751)	1	inactive
40	Dsk (GeneID 45845)	1	inactive
41	Gs1l (GeneID 33653)	1	inactive
42	Cec-Psi1 (GeneID 3772648)	1	inactive
43	CG4297 (GeneID 33222)	1	inactive
44	egl (GeneID 37757)	1	inactive
45	CG5002 (GeneID 37025)	1	inactive
46	Dyrk3 (GeneID 3885567)	1	inactive
47	CG12480 (GeneID 32359)	1	inactive
48	lectin-21Ca (GeneID 53552)	1	inactive
49	Unc-115b + p24-2	1	inactive
50	klg (GeneID 42707)	1	inactive
51	klg (GeneID 42707)	2	inactive
52	CG14797 (GeneID 31123)	1	inactive
53	Ugt303B3 (GeneID 42774)	1	inactive
54	MnM (GeneID 38384)	1	inactive
55	Ccp84Af (GeneID 40820)	1	inactive
56	CG10839 (GeneID 34944)	1	inactive
57	CG10013 (GeneID 41494)	1	inactive
58	CG31128 (GeneID 318601)	1	inactive
59	CG3942 (GeneID 41489)	1	inactive
60	l(2)37Bb (GeneID 49427)	1	inactive
61	Dis3 (GeneID 42900)	1	inactive
62	bowl (GeneID 33602)	1	inactive
63	CG13526 (GeneID 37613)	1	inactive
64	CG31698 (GeneID 318888)	1	inactive
65	CG14778 (GeneID 31100)	1	inactive
66	Zip48C (GeneID 36273)	1	inactive
67	parvin (GeneID 32990)	1	inactive
68	CG30099 (GeneID 36818)	1	inactive
69	dpr6 (GeneID 50296)	1	inactive
70	dpr6 (GeneID 50296)	2	inactive
71	dpr6 (GeneID 50296)	3	inactive
72	Sf3a1 (GeneID 42048)	1	inactive
73	meng (GeneID 33948)	1	inactive
74	MESK2 (GeneID 37451)	1	inactive
75	alphaTub84B (GeneID 40848)	1	inactive
76	Ctl2 (GeneID 43440)	1	inactive
77	TTLL12 (GeneID 35732)	1	inactive
78	ppk11 (GeneID 34299)	1	inactive
79	CG10341 (GeneID 35125)	1	inactive
80	CG31156 (GeneID 42669)	1	inactive
81	CG31156 (GeneID 42669)	2	inactive
82	CG34224 (GeneID 5740585)	1	inactive
83	CG10914 (GeneID 37075)	1	inactive
84	CG13810 (GeneID 38278)	1	inactive
85	CG13810 (GeneID 38278)	2	inactive
86	CG31064 (GeneID 43277)	1	inactive
87	CG31064 (GeneID 43277)	2	inactive
88	CG31064 (GeneID 43277)	3	inactive
89	CG31064 (GeneID 43277)	4	inactive
90	conv (GeneID 36588)	1	inactive
91	CG5167 (GeneID 41521)	1	inactive
92	Imp (GeneID 32009)	1	inactive
93	Imp (GeneID 32009)	2	inactive
94	wit (GeneID 44096)	1	inactive
95	sced (GeneID 35564)	1	inactive
96	CG33270 (GeneID 2768982)	1	inactive
97	CG34297 (GeneID 5740802)	1	inactive
98	CG43345 (GeneID 35387)	1	inactive
99	sisA (GeneID 32068)	1	inactive
100	CG18581 (GeneID 39633)	1	inactive
101	MICU3 (GeneID 42357)	1	inactive
102	MICU3 (GeneID 42357)	2	inactive
103	CG3927 (GeneID 37576)	1	inactive
104	CG3927 (GeneID 37576)	2	inactive
105	CG2747 (GeneID 40950)	1	inactive
106	rho-7 (GeneID 36281)	1	inactive
107	Rb97D (GeneID 43231)	1	inactive
108	Cpr65Az (GeneID 38712)	1	inactive
109	Cpr65Az (GeneID 38712)	2	inactive
110	CG7024 (GeneID 31407)	1	inactive
111	Cyp28d2 (GeneID 33748)	1	inactive
112	lncRNA:CR31526 (GeneID 318783)	1	inactive
113	CG33285 (GeneID 2768988)	1	inactive
114	RYBP (GeneID 37601)	1	inactive
115	CG33494 (GeneID 2768686)	1	inactive
116	Scsalpha1 (GeneID 38447)	1	inactive
117	Ak2 (GeneID 37834)	1	inactive
118	Strica (GeneID 35528)	1	inactive
119	RpL38 (GeneID 3355144)	1	inactive
120	CG42449 (GeneID 31486)	1	inactive
121	PolE2 (GeneID 38661)	1	inactive
122	CG5478 (GeneID 41936)	1	inactive
123	CG31674 (GeneID 318878)	1	inactive
124	CG18635 (GeneID 37031)	1	inactive
125	CycT (GeneID 39961)	1	inactive
126	hyx (GeneID 41086)	1	inactive
127	bcd + CR14578	1	inactive
128	Drip (GeneID 36236)	1	inactive
129	CG13151 (GeneID 36374)	1	inactive
130	CG34228 (GeneID 5740377)	1	inactive
131	tai (GeneID 34242)	1	inactive
132	tai (GeneID 34242)	2	inactive
133	Rich (GeneID 40456)	1	inactive
134	zuc (GeneID 34609)	1	inactive
135	CG12725 (GeneID 32298)	1	inactive
136	CG10904 (GeneID 37817)	1	inactive
137	CG43980 (GeneID 2768995)	1	inactive
138	CG43980 (GeneID 2768995)	2	inactive
139	phr (GeneID 35735)	1	inactive
140	AP-1mu (GeneID 41150)	1	inactive
141	Ucp4C (GeneID 33832)	1	inactive
142	pre-mod(mdg4)-U + mod(mdg4)	1	inactive
143	Unc-76 (GeneID 31179)	1	inactive
144	Unc-76 (GeneID 31179)	2	inactive
145	twf (GeneID 41719)	1	inactive
146	CG14691 (GeneID 41287)	1	inactive
147	Cpr76Bc (GeneID 40122)	1	inactive
148	TfIIA-S-2 (GeneID 31048)	1	inactive
149	CG31792 (GeneID 35163)	1	inactive
150	elav (GeneID 31000)	1	inactive
151	AdoR (GeneID 43583)	1	inactive
152	emei (GeneID 39250)	1	inactive
153	emei (GeneID 39250)	2	inactive
154	CG3436 (GeneID 33180)	1	inactive
155	APP-BP1 (GeneID 39244)	1	inactive
156	Gr66a (GeneID 38935)	1	inactive
157	Impbeta11 (GeneID 36732)	1	inactive
158	CrzR (GeneID 39409)	1	inactive
159	CrzR (GeneID 39409)	2	inactive
160	CG32241 (GeneID 317934)	1	inactive
161	CG32241 (GeneID 317934)	2	inactive
162	CG14325 (GeneID 42123)	1	inactive
163	RNF220 (GeneID 42690)	1	inactive
164	CG17065 (GeneID 33026)	1	inactive
165	CG32219 (GeneID 317922)	1	inactive
166	CG15676 (GeneID 37472)	1	inactive
167	Cnx99A + Cnx14D	1	inactive
168	sand (GeneID 35777)	1	inactive
169	CG33792 (GeneID 3772111)	1	inactive
170	CG14490 (GeneID 37041)	1	inactive
171	CG43339 + CG43338	1	inactive
172	bves (GeneID 33083)	1	inactive
173	bves (GeneID 33083)	2	inactive
174	bves (GeneID 33083)	3	inactive
175	CG31121 (GeneID 42975)	1	inactive
176	CG31121 (GeneID 42975)	2	inactive
177	CG33252 (GeneID 2768903)	1	inactive
178	mdlc (GeneID 42397)	1	inactive
179	qvr (GeneID 2768718)	1	inactive
180	CG13544 (GeneID 37673)	1	inactive
181	Crag (GeneID 31800)	1	inactive
182	CG11041 (GeneID 37278)	1	inactive
183	Vps13 (GeneID 35693)	1	inactive
184	dmrt93B (GeneID 42494)	1	inactive
185	CG31709 (GeneID 261620)	1	inactive
186	cv-2 (GeneID 45280)	1	inactive
187	cv-2 (GeneID 45280)	2	inactive
188	eIF4G2 (GeneID 42819)	1	inactive
189	eIF4G2 (GeneID 42819)	2	inactive
190	CG46385 (GeneID 246653)	1	inactive
191	CG46385 (GeneID 246653)	2	inactive
192	mRpL51 (GeneID 34186)	1	inactive
193	RanBP3 (GeneID 42804)	1	inactive
194	Uros1 (GeneID 31817)	1	inactive
195	CG8206 (GeneID 32516)	1	inactive
196	SdhBL (GeneID 32887)	1	inactive
197	ppk31 (GeneID 318575)	1	inactive
198	Eip78C (GeneID 40345)	1	inactive
199	Pkg21D (GeneID 33253)	1	inactive
200	CG10949 (GeneID 35310)	1	inactive

17 consecutive reagents from above, quoted:
no.	gene knocked down	dsRNA no.	call
88	CG31064 (GeneID 43277)	3	inactive
89	CG31064 (GeneID 43277)	4	inactive
90	conv (GeneID 36588)	1	inactive
91	CG5167 (GeneID 41521)	1	inactive
92	Imp (GeneID 32009)	1	inactive
93	Imp (GeneID 32009)	2	inactive
94	wit (GeneID 44096)	1	inactive
95	sced (GeneID 35564)	1	inactive
96	CG33270 (GeneID 2768982)	1	inactive
97	CG34297 (GeneID 5740802)	1	inactive
98	CG43345 (GeneID 35387)	1	inactive
99	sisA (GeneID 32068)	1	inactive
100	CG18581 (GeneID 39633)	1	inactive
101	MICU3 (GeneID 42357)	1	inactive
102	MICU3 (GeneID 42357)	2	inactive
103	CG3927 (GeneID 37576)	1	inactive
104	CG3927 (GeneID 37576)	2	inactive
